Consider one substance from doi:10.1101/2020.11.16.385906.

Protein sequences, listed by entry. Tags and fused reporters are not part of them. Residues count along the entry.
UniProt Q9Y2A7: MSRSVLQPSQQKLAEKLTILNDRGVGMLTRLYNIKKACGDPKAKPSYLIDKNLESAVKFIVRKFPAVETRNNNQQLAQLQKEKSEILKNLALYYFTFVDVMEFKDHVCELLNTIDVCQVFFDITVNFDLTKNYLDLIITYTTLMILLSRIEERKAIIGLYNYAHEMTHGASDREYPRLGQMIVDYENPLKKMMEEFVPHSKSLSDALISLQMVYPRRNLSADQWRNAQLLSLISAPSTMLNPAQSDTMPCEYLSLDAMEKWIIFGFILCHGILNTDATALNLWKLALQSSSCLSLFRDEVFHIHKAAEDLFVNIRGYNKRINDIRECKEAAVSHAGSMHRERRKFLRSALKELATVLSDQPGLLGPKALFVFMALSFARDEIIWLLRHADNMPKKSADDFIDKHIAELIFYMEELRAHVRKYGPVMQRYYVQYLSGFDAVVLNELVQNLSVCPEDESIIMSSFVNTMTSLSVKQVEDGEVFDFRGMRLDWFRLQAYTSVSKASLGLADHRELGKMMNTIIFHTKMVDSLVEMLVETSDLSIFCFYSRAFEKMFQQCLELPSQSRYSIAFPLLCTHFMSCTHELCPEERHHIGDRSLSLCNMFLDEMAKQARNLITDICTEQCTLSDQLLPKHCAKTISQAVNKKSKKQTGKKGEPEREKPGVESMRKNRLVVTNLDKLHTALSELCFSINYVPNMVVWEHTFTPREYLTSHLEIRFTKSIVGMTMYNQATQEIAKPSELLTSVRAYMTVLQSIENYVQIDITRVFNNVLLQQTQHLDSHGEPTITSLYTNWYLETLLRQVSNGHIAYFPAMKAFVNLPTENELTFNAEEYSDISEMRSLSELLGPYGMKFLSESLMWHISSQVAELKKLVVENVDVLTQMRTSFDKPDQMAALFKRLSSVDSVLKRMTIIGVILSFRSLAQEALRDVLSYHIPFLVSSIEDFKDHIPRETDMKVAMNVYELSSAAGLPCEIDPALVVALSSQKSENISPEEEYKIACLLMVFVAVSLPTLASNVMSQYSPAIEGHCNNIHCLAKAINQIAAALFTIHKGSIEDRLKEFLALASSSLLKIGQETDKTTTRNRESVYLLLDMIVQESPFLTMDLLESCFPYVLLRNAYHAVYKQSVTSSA
UniProt Q7L576: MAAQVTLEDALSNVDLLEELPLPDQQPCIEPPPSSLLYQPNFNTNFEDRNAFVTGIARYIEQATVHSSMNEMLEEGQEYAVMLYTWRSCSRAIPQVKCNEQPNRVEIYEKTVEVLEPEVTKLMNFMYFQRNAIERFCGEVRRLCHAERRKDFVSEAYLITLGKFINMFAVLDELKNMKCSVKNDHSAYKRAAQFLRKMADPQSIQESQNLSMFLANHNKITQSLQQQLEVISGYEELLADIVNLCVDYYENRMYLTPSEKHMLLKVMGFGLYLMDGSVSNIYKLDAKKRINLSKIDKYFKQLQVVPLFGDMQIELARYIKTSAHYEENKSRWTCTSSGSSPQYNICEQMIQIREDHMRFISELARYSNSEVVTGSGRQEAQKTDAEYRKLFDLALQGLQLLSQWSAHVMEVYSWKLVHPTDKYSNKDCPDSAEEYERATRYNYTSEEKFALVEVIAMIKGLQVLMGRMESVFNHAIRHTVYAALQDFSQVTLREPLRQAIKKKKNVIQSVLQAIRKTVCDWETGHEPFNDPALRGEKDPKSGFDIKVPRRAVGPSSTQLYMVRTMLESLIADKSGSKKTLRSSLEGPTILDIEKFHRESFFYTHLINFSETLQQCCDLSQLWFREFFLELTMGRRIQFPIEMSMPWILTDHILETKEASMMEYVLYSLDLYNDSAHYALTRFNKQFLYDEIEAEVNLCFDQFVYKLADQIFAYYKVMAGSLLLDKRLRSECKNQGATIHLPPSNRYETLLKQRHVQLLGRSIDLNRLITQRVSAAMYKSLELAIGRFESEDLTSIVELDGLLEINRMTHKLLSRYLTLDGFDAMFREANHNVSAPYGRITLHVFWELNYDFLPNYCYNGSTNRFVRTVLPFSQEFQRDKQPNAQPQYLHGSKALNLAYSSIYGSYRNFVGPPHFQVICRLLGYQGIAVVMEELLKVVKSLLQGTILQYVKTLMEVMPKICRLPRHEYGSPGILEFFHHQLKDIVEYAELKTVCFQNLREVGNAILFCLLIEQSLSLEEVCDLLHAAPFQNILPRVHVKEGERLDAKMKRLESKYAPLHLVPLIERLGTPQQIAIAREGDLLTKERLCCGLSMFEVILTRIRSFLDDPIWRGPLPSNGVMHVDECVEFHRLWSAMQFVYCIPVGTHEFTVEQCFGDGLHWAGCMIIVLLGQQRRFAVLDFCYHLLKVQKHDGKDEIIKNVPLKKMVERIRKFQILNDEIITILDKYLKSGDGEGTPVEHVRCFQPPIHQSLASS
UniProt Q14C87, residues 31-1099: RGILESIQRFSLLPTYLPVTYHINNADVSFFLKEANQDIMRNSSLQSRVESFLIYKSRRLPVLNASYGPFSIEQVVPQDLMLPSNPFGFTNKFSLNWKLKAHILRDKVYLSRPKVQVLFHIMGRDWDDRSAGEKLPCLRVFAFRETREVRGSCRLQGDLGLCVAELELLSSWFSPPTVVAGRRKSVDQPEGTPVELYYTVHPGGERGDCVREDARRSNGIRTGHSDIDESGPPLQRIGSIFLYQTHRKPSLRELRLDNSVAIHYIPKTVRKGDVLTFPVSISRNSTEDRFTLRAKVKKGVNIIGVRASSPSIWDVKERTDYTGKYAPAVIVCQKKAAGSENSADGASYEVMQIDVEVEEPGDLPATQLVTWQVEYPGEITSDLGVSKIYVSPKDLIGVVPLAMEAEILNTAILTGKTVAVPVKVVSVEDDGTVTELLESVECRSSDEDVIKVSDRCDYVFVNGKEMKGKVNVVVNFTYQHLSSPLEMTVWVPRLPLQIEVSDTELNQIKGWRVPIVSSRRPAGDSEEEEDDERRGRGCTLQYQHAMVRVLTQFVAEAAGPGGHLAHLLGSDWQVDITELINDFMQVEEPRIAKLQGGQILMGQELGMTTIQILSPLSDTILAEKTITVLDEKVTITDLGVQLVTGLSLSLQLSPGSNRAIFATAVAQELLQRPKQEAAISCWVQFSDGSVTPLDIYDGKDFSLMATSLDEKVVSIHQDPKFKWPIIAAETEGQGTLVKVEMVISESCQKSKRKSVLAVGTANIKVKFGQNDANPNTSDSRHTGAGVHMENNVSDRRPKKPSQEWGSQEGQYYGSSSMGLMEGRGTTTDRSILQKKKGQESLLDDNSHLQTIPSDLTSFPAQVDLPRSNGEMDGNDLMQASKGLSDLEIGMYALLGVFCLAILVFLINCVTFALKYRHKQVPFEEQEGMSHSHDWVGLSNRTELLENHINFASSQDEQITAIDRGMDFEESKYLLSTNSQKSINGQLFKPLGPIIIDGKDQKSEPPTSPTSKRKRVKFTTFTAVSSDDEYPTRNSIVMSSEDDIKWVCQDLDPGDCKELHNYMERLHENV

No constants are given. Whether binding was seen depends on the method and setting. Binding seen in cells or lysates may run through a third protein. Some entries that bind do so weakly or less than the wild type.

Experiment [1] concerns the target GFP-tagged NAP1 (full length) (human) (UniProt Q9Y2A7). In words: co-IP.
The target in another experiment is GFP-tagged SRA1 (human) (UniProt Q7L576). The experiment is described as follows: co-IP.

Regarding “V5 epitope-tagged human TMEM132D (from UniProt Q14C87 31-1099)”, the binding result (in experiment [1]; in the experiment with GFP-tagged SRA1 (human)) was “binds” in each case.
